# Test results reported in PMC6362308.
# These are yes or no findings as the source states them, for the method shown. Binding seen in cells or lysates may run through a third protein. A result given as binding can be weak or reduced; the word gives no strength.
# Target: T1, Endogenous human RECQL4 (RecQ-like helicase 4) in HeLa nuclear extract (human (endogenous in HeLa)) (UniProt O94761)
# T1 sequence: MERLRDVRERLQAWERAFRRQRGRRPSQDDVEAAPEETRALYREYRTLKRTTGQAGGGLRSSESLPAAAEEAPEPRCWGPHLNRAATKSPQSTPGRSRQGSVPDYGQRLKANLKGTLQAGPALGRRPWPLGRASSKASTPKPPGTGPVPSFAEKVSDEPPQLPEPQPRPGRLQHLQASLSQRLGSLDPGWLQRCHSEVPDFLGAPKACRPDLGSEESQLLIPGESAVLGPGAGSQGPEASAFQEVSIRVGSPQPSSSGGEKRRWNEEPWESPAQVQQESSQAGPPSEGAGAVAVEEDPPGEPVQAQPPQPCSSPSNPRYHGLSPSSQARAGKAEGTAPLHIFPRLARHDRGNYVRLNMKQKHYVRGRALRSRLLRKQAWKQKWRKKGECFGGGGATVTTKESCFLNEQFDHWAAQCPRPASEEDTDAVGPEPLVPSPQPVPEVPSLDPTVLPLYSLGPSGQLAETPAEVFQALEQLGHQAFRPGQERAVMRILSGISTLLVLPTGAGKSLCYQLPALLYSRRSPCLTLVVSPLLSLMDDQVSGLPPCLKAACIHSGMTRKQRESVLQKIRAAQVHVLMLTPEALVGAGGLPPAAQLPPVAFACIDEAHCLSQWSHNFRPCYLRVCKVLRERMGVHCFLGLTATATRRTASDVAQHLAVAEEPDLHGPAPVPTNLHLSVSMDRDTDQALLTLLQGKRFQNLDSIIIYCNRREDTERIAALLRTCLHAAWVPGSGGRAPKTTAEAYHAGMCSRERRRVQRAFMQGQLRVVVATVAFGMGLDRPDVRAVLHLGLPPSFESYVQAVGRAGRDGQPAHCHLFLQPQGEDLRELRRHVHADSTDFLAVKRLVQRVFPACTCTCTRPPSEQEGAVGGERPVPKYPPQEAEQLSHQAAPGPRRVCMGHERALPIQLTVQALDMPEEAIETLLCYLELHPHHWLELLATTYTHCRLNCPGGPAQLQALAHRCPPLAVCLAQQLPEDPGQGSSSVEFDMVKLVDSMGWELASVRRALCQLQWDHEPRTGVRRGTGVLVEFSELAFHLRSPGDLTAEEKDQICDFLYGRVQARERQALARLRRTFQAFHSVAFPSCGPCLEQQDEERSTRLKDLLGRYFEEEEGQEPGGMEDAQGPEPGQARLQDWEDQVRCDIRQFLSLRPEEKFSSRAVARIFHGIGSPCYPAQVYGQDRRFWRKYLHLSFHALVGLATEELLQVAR
# Experiment: co-sedimentation; recombinant importin α/β complex added to HeLa nuclear extract; read out as loss of RECQL4 from the microtubule pellet (Fig 1A); only the binder purified
substance,measurement,value
recombinant importin α/β complex,binding,binds
